The other results are listed elsewhere or left out. Repeats in this data set agree poorly, so a single value says little.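 Researchers measured free-swimming zebrafish larvae's O-bend response probability to dark flashes (naive: first five; training: remaining flashes of four 60-flash blocks; test: later 60-flash block) and OMR turning toward alternating leftward/rightward LED motion. Six treated larvae were compared to sixty 0.1% DMSO controls, with |SSMD|≥2 marking a hit.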
The compounds below were run on Danio rerio larvae (5 dpf, TLF) (assay: Prob-Train (SSMD vs DMSO vehicle); higher = higher than vehicle (e.g. higher dark-flash O-bend response probability, or better optomotor performance)). Conditions: 10 µM; pre-incubation: 30-90 min.
In the case of `Cc1cc(C(=O)CN2CCCC2)c(C)n1-c1ccc(F)cc1`, the Prob-Train is reported as 1.07.
`CN(C)C(=O)Oc1ccc[n+](C)c1.[Br-]` [Pyridostigmine Bromide] gave a Prob-Train of 0.00914.
Compound `C/C(=C\c1csc(C)n1)[C@H]1C[C@@H]2O[C@]2(C)CCC[C@H](C)[C@H](O)[C@@H](C)C(=O)C(C)(C)[C@H](O)CC(=O)O1` [Epothilone B (EPO906, Patupilone)] has a Prob-Train of 0.439.
With `COc1ccc(C(=O)N2CCCC2=O)cc1` [Aniracetam] the Prob-Train was 0.179.
For `O=P1(NCCCl)OCCCN1CCCl` (stereo unspecified) [Ifosfamide], the Prob-Train was 0.621.
For `O=C1CCC[C@@H]2[C@@H]3CCCN4CCC[C@H](CN12)[C@@H]34` [(+)-Matrine], the Prob-Train was 0.259.
In the case of `NCCC(O)(P(=O)([O-])O)P(=O)([O-])O.[Na+].[Na+]` [Pamidronate Disodium], the Prob-Train is reported as 0.248.
In the case of `CN1CCc2cccc3c2C1Cc1ccc(O)c(O)c1-3.CN1CCc2cccc3c2C1Cc1ccc(O)cc1-3` (stereo not drawn) [R-(-)-Apomorphine HCl Hemihydrate], the Prob-Train is reported as -1.89.
`C[C@]12CC[C@H](O)C[C@@H]1CC[C@@H]1[C@H]2CC[C@]2(C)C(=O)CC[C@@H]12` [Epiandrosterone] showed a Prob-Train of -2.74.
With `CN1CCN(c2nc3ccccc3nc2Cl)CC1` the Prob-Train was 0.169.
In the case of `Cc1cccc(Cc2c[nH]cn2)c1C.Cl` [Detomidine HCl], the Prob-Train is reported as -2.46.
For `Cc1cccc(C)c1NC(=O)CN1CCCC1=O` [Nefiracetam], the Prob-Train was -0.223.
`c1cc2c(cc1[C@H]1OC[C@H]3[C@H]1CO[C@@H]3c1ccc3c(c1)OCO3)OCO2` [Sesamin] gave a Prob-Train of -2.93.
`C[C@H]1CCC/C=C/[C@@H]2C[C@H](O)C[C@H]2[C@H](O)/C=C/C(=O)O1` [Brefeldin A] was tested, and the Prob-Train was -0.281.
For `CN1[C@@H]2C[C@@H](O)C[C@H]1[C@@H]1O[C@@H]12` [Scopine], the Prob-Train was -0.192.
`C=C1C[C@@H]2[C@@H](CC[C@@]3(C)C(=O)CC[C@@H]23)[C@@]2(C)C=CC(=O)C=C12` [Exemestane] gave a Prob-Train of -1.
Compound `CCN(C)C(=O)Oc1cccc([C@H](C)N(C)C)c1.O=C(O)[C@H](O)[C@@H](O)C(=O)O` [Rivastigmine Tartrate] has a Prob-Train of 0.091.
Work on `CC(=O)O[C@H]1C[C@@H]2CC[C@@H]3[C@@H](CC[C@]4(C)[C@H](OC(C)=O)[C@@H]([N+]5(C)CCCCC5)C[C@@H]34)[C@@]2(C)C[C@@H]1[N+]1(C)CCCCC1.[Br-].[Br-]` [Pancuronium dibromide] yielded a Prob-Train of 0.576.
For `C[C@@H]1C(=O)O[C@@H]2O[C@@]3(C)CC[C@H]4[C@@H](C)CC[C@@H]1[C@@]24OO3` [Artemisinin], the Prob-Train was -0.00763.
`C[C@]12CC[C@H](O)CC1=CC[C@@H]1[C@H]2CC[C@]2(C)C(=O)CC[C@@H]12` [Dehydroepiandrosterone (DHEA)] was tested, and the Prob-Train was -0.415.
Compound `CN(C)C(=O)C(CCN1CCC(O)(c2ccc(Cl)cc2)CC1)(c1ccccc1)c1ccccc1.Cl` [Loperamide HCl] has a Prob-Train of -1.
With `Cn1cc(C2=C(c3cn(C4CCN(Cc5ccccn5)CC4)c4ccccc34)C(=O)NC2=O)c2ccccc21` the Prob-Train was -0.471.
Compound `C=CCN.Cl.ClCC1CO1` (stereo unspecified) [Sevelamer HCl] has a Prob-Train of -0.0021.
In the case of `Cc1cccc([C@H](C)c2cnc[nH]2)c1C.Cl` [Dexmedetomidine HCl (Precedex)], the Prob-Train is reported as -3.07.
Compound `CCc1c(C(=O)C(N)=O)c2c(OCC(=O)O)cccc2n1Cc1ccccc1` has a Prob-Train of -0.167.
`CNC(=O)Oc1ccc2c(c1)[C@]1(C)CCN(C)C1N2C.O=C(O)c1ccccc1O` (stereo partly specified) [Physostigmine Salicylate] was tested, and the Prob-Train was 0.728.
In the case of `Cc1cccc(C)c1NC1=NCCCS1.Cl` [Xylazine HCl], the Prob-Train is reported as -0.627.
For `Cc1ccccc1-n1c(Cn2cnc3c(N)ncnc32)nc2cccc(C)c2c1=O`, the Prob-Train was -0.0433.
`CCC1(c2ccc(N)cc2)CCC(=O)NC1=O` (stereo unspecified) [Aminoglutethimide] showed a Prob-Train of -0.0938.
In the case of `Cc1sc2c(c1C)C(c1ccc(Cl)cc1)=NC(CC(=O)Nc1ccc(O)cc1)c1nnc(C)n1-2` (stereo unspecified), the Prob-Train is reported as -0.363.
In the case of `Cc1sc2c(c1C)C(c1ccc(Cl)cc1)=NC(CC(N)=O)c1nnc(C)n1-2` (stereo unspecified), the Prob-Train is reported as 0.409.
Work on `CC[N+]1(C)CCCC(OC(=O)C(O)(c2ccccc2)c2ccccc2)C1.[Br-]` (stereo unspecified) [Pipenzolate Bromide] yielded a Prob-Train of -0.236.
`O=C(O)C=CC(=O)O.O=C(O)C=CC(=O)O.c1ccc2nc(N3CCNCC3)ccc2c1` [Quipazine Maleate] showed a Prob-Train of -0.0126.
`CCN(CC)C(=O)c1ccc(C2=CC3(CCNCC3)Oc3cccc(O)c32)cc1.Cl` was tested, and the Prob-Train was 0.273.
`CCC(COC(=O)c1cc(OC)c(OC)c(OC)c1)(c1ccccc1)N(C)C` (stereo unspecified) [Trimebutine] showed a Prob-Train of -0.691.
For `CC(=O)Nc1cc([As](=O)(O)O)ccc1O` [Acetarsone], the Prob-Train was 0.163.
